Test [1] addresses HA-tagged CSQ1 C9 (deletion of wild-type amino acids 388-396) (human) (UniProt P31415). The test is described as follows: co-IP; HEK293 cells expressing HA-CSQ1, C9 or C35, in Ca2+-free HBSS, 1 μM TG for 5 min (also 20 μM TFP for 10 min before TG); lysates precipitated with anti-HA antibody, blot for endogenous STIM1.
Test [2] deals with HA-tagged CSQ1 C35 (deletion of wild-type amino acids 362-396) (human) (UniProt P31415). The description is as above.
Test [3] deals with HA-tagged human wild-type CSQ1 (human) (UniProt P31415). The description is as above.
Test [4] deals with Calsequestrin1 (CSQ1), endogenous (human (endogenous in HEK293)) (UniProt P31415). Kind of test: co-IP; endogenous proteins in whole cell lysates of untransfected HEK293 cells; IP with anti-STIM1 mAb (blot Orai1) or anti-CSQ1 mAb (blot STIM1) and protein-G agarose, 4 °C overnight; cells in Ca2+-free HBSS with or without 1 μM TG for 5 min, with or without 20 μM TFP or 50 μM W7 beforehand; normal mouse IgG as negative control.

Protein sequences, listed by entry. Tags and fused reporters are not part of them. Lines headed by an entry give the natural chain unless they say otherwise; changes in a name come on top. Residues count along the entry.
UniProt P31415: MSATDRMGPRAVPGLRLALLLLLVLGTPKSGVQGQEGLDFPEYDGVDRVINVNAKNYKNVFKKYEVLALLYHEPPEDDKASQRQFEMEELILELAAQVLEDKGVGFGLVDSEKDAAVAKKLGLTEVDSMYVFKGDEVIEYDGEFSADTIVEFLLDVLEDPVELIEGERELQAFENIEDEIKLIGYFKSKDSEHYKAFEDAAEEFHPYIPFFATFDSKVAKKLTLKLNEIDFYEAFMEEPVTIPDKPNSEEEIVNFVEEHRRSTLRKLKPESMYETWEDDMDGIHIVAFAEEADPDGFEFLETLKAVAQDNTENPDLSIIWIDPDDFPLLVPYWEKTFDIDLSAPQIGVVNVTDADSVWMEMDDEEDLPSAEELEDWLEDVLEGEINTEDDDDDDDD
UniProt Q13586, residues 23-685: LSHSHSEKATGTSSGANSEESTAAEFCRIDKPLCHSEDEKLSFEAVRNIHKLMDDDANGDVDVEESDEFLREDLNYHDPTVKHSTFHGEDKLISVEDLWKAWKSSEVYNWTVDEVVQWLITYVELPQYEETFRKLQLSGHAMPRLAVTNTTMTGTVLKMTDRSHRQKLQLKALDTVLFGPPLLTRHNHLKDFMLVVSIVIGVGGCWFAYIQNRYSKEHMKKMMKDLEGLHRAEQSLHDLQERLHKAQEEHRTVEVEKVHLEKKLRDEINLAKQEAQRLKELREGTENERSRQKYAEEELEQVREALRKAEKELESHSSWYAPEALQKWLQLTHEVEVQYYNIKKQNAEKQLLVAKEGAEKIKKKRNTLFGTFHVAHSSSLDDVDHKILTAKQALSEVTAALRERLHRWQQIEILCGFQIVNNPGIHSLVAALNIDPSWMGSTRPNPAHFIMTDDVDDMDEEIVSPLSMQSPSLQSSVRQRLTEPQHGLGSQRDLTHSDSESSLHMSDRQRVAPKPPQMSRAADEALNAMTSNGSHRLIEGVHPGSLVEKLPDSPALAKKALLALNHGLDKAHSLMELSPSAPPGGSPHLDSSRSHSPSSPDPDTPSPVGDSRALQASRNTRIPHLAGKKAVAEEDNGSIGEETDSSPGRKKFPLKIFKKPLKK

In test [5] the target is stromal interaction molecule 1 (STIM1) (human (endogenous in HEK293)) (UniProt Q13586). Kind of test: co-IP; reverse: HEK293 cells expressing HA-CSQ1, C9 or C35, 1 μM TG for 5 min; lysates precipitated with anti-STIM1 antibody, blot for the HA tag.

These are yes or no findings as the source states them, for the method shown. Binding seen in cells or lysates may run through a third protein. Some results given as binding are weak or reduced against the parent protein; the word gives no strength.

Take “stromal interaction molecule 1 (STIM1) (from UniProt Q13586 23-685)”: the binding result in test [1] was “binds”; in test [2] it was “binds weakly”; in test [3] it was “binds”; in test [4] it was “binds”.
For the substance “HA-tagged human wild-type CSQ1 (from UniProt P31415 35-396)”, the binding entry in test [5] is “binds”.
Still for that read-out and setting: for “HA-tagged CSQ1 C9 (deletion of wild-type amino acids 388-396) (from UniProt P31415 35-387) (domain or fragment)” the value was “binds”; for “HA-tagged CSQ1 C35 (deletion of wild-type amino acids 362-396) (from UniProt P31415 35-361) (domain or fragment)”, “binds weakly”.

These data come from publication PMC4471903.
